Binding data for three molecules are collected here from PMC3597501 (2013).

No constants are given. Whether binding was seen depends on the method and setting. For some of these results: In cells and extracts the contact can be indirect. Some results given as binding are weak or reduced against the parent protein; the word gives no strength. For some of these results: Where a sequence is shown, tags or fusion partners need not be part of it.

For assay [1], the target named is T1, Taihu Dwarf1 (TUD1), full length, BiFC fusion (rice (O. sativa)) (UniProt Q10PI9).
T1 sequence: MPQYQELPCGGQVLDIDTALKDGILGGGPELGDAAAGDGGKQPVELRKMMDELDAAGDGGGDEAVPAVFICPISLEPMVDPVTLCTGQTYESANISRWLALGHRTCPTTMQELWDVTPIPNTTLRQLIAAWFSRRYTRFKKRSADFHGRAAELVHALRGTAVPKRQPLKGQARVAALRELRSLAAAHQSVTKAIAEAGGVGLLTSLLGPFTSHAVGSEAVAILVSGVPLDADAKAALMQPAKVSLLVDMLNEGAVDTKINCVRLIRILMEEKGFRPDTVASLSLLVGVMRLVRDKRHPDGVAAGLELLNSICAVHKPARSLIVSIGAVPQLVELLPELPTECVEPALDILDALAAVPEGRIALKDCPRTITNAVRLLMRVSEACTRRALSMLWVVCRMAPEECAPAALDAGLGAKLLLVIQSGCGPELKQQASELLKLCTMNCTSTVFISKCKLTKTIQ
The experiment in a line: split reporter; BiFC in rice protoplasts; full-length TUD1 and D1 co-expressed; reconstituted CFP fluorescence.

Assay [2] deals with T2, GST-TUD1 (rice (O. sativa)) (UniProt Q10PI9).
T2 sequence: T1 sequence
The experiment in a line: pull-down; GST pull-down; purified His-D1 incubated with GDP for 2 hours before GST-TUD1 was added; precipitated with glutathione-agarose beads; blots with anti-His and anti-GST; both purified.

Assay [3] has as its target T2, GST-TUD1 (rice (O. sativa)). Nature of the assay: pull-down; GST pull-down; purified His-D1 incubated with GTPγS for 2 hours before GST-TUD1 was added; precipitated with glutathione-agarose beads; blots with anti-His and anti-GST; both purified.
Assay [4] concerns the target T3, TUD1, full length, in pGBKT7 (yeast two-hybrid) (rice (O. sativa)) (UniProt Q10PI9).
T3 sequence: T1 sequence
The experiment in a line: two-hybrid; yeast AH109; pGBKT7-TUD1 with pGADT7-D1; three days on selective medium.

B1: Heterotrimeric G protein alpha subunit D1/RGA1, full length, BiFC fusion (protein, UniProt Q0DJ33 1-380)
chain: MGSSCSRSHSLSEAETTKNAKSADIDRRILQETKAEQHIHKLLLLGAGESGKSTIFKQIKLLFQTGFDEAELRSYTSVIHANVYQTIKILYEGAKELSQVESDSSKYVISPDNQEIGEKLSDIDGRLDYPLLNKELVLDVKRLWQDPAIQETYLRGSILQLPDCAQYFMENLDRLAEAGYVPTKEDVLYARVRTNGVVQIQFSPVGENKRGGEVYRLYDVGGQRNERRKWIHLFEGVNAVIFCAAISEYDQMLFEDETKNRMMETKELFDWVLKQRCFEKTSFILFLNKFDIFEKKIQKVPLSVCEWFKDYQPIAPGKQEVEHAYEFVKKKFEELYFQSSKPDRVDRVFKIYRTTALDQKLVKKTFKLIDESMRRSREGT
As to B1, the binding result in assay [1] is listed as “binds”.

B2: D1-tagged His (purified D1 fusion protein) (protein)
chain: B1 chain
On to B2, for which the binding result in assay [2] and in assay [3] was “binds” in each case.

B3: D1, full length, in pGADT7 (yeast two-hybrid) (protein, UniProt Q0DJ33 1-380)
chain: B1 chain
Regarding B3, the binding entry in assay [4] is recorded as “binds”.
